Data as given in PubChem BioAssay AID652272 (Drosophila RNAi Screening Center, 2013).
The deposit covers about 21,000 reagents; shown is a random part of those that have a named target and a result. In the full data, 503 (2.4%) got an active call. 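Raw plate light values, not normalised; calls rest on replicate z-scores that were not deposited; hits include reporter decreases as well as increases.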 Unmarked entries are inactive. Not stated in the record: the amount of reagent, the time to read-out.

Purpose: 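Genome-wide knock-down search for components of Hedgehog signalling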 (primary screen)
Cell system: Drosophila clone 8 (Cl8) cells
Reagents: long dsRNA against Drosophila genes
Detection: 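Firefly light from a Hedgehog-responsive ptc promoter reporter and Renilla reference light, both read on a plate reader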
Direction: firefly Hh reporter signal: higher = more ptc reporter light; Renilla reference signal: higher = more Renilla control light
Hit rule: 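Hit when the z-score averaged over two replicates is under -2 or over +3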
Meaning of the calls: active = hit: reporter lowered or raised; inactive = not a hit

What did the screen give for CG43116 [SID104193529]?
firefly Hh reporter signal, replicate 1: 44448; firefly Hh reporter signal, replicate 2: 1.03e5; Renilla reference signal, replicate 1: 11127; Renilla reference signal, replicate 2: 2908

For Prx4 (Peroxiredoxin 4) [SID104188460], how do the results read?
firefly Hh reporter signal, replicate 1: 83252; firefly Hh reporter signal, replicate 2: 49345; Renilla reference signal, replicate 1: 2016; Renilla reference signal, replicate 2: 3548

What is on record for Pkcdelta (Protein kinase C delta) [SID104199148]?
firefly Hh reporter signal, replicate 1: 1.20e5; firefly Hh reporter signal, replicate 2: 3.84e5; Renilla reference signal, replicate 1: 5109; Renilla reference signal, replicate 2: 16315

With Pkcdelta (Protein kinase C delta) [SID104199191], how do the results read?
firefly Hh reporter signal, replicate 1: 1.43e5; firefly Hh reporter signal, replicate 2: 3.32e5; Renilla reference signal, replicate 1: 5229; Renilla reference signal, replicate 2: 13926

With CG7300 [SID104182836], what was measured?
firefly Hh reporter signal, replicate 1: 55876; firefly Hh reporter signal, replicate 2: 1.11e5; Renilla reference signal, replicate 1: 2828; Renilla reference signal, replicate 2: 4045

How did the screen score CG15014 [SID104188260]?
firefly Hh reporter signal, replicate 1: 74601; firefly Hh reporter signal, replicate 2: 66866; Renilla reference signal, replicate 1: 6034; Renilla reference signal, replicate 2: 4503

With CG43707 [SID104180072], what was measured?
firefly Hh reporter signal, replicate 1: 2.07e5; firefly Hh reporter signal, replicate 2: 74243; Renilla reference signal, replicate 1: 4716; Renilla reference signal, replicate 2: 7771

How did the screen score mmy (mummy) [SID104181794]?
firefly Hh reporter signal, replicate 1: 61430; firefly Hh reporter signal, replicate 2: 58201; Renilla reference signal, replicate 1: 2407; Renilla reference signal, replicate 2: 2300

For CG32813 [SID104197740], what does the deposit list?
firefly Hh reporter signal, replicate 1: 72355; firefly Hh reporter signal, replicate 2: 2.94e5; Renilla reference signal, replicate 1: 1483; Renilla reference signal, replicate 2: 11607

For AGO2 (Argonaute 2) [SID104189791], what was measured?
firefly Hh reporter signal, replicate 1: 22504 (active); Renilla reference signal, replicate 1: 960; Renilla reference signal, replicate 2: 1048

With AGO2 (Argonaute 2) [SID104190639], what does the deposit list?
firefly Hh reporter signal, replicate 1: 59136; firefly Hh reporter signal, replicate 2: 26992; Renilla reference signal, replicate 1: 2678; Renilla reference signal, replicate 2: 1364

2 of these entries, reformatted:
gene knocked down	PubChem SID	firefly Hh reporter signal, replicate 1	firefly Hh reporter signal, replicate 2	firefly Hh reporter signal, replicate 3	Renilla reference signal, replicate 1	Renilla reference signal, replicate 2
CG7300	SID104182836	55876	1.11e5		2828	4045
CG15014	SID104188260	74601	66866		6034	4503

The listing continues.
With Cyp313a1 (Cytochrome P450 313a1) [SID104196416], how do the results read?
firefly Hh reporter signal, replicate 1: 70279; firefly Hh reporter signal, replicate 2: 1.16e5; Renilla reference signal, replicate 1: 1946; Renilla reference signal, replicate 2: 3553

For CG32037 [SID104190155], how do the results read?
firefly Hh reporter signal, replicate 1: 59565; firefly Hh reporter signal, replicate 2: 66161; firefly Hh reporter signal, replicate 3: 74641; Renilla reference signal, replicate 1: 6288; Renilla reference signal, replicate 2: 5866

What is on record for Sod2 (Superoxide dismutase 2 (Mn)) [SID104187346]?
firefly Hh reporter signal, replicate 1: 1.29e5; firefly Hh reporter signal, replicate 2: 1.13e5; Renilla reference signal, replicate 1: 5077; Renilla reference signal, replicate 2: 4384

What is on record for CG9263 [SID104182968]?
firefly Hh reporter signal, replicate 1: 1.63e5; firefly Hh reporter signal, replicate 2: 65242; Renilla reference signal, replicate 1: 4384; Renilla reference signal, replicate 2: 6322

What is on record for mRpL12 (mitochondrial ribosomal protein L12) [SID104190259]?
firefly Hh reporter signal, replicate 1: 98893; firefly Hh reporter signal, replicate 2: 56586; Renilla reference signal, replicate 1: 4112; Renilla reference signal, replicate 2: 2544

What is on record for Tim23 (Translocase of inner mitochondrial membrane 23) [SID104201032]?
firefly Hh reporter signal, replicate 1: 7.46e5; firefly Hh reporter signal, replicate 2: 2.53e5; Renilla reference signal, replicate 1: 45240; Renilla reference signal, replicate 2: 6592

What did the screen give for CalpB (Calpain-B) [SID104190901]?
firefly Hh reporter signal, replicate 1: 1.14e5; firefly Hh reporter signal, replicate 2: 42554; Renilla reference signal, replicate 1: 4614; Renilla reference signal, replicate 2: 1208

What is on record for tsg (twisted gastrulation) [SID104200172]?
firefly Hh reporter signal, replicate 1: 66646; firefly Hh reporter signal, replicate 2: 3.34e5; Renilla reference signal, replicate 1: 1565; Renilla reference signal, replicate 2: 11900

For GC (gamma-glutamyl carboxylase) [SID104188188], what does the deposit list?
firefly Hh reporter signal, replicate 1: 65894; firefly Hh reporter signal, replicate 2: 39977; Renilla reference signal, replicate 1: 1961; Renilla reference signal, replicate 2: 3064

What did the screen give for CG4537 [SID104182548]?
firefly Hh reporter signal, replicate 1: 1.17e5; firefly Hh reporter signal, replicate 2: 72036; Renilla reference signal, replicate 1: 2801; Renilla reference signal, replicate 2: 7072

What is on record for pins (partner of inscuteable) [SID104196835]?
firefly Hh reporter signal, replicate 1: 93527; firefly Hh reporter signal, replicate 2: 70832; Renilla reference signal, replicate 1: 2256; Renilla reference signal, replicate 2: 1924

How did the screen score CG34198 [SID104185595]?
firefly Hh reporter signal, replicate 1: 1.17e5; firefly Hh reporter signal, replicate 2: 2.36e5; Renilla reference signal, replicate 1: 3353; Renilla reference signal, replicate 2: 9277

What is on record for Ktl (Kctd12-like) [SID104194062]?
firefly Hh reporter signal, replicate 1: 97033; firefly Hh reporter signal, replicate 2: 97633; Renilla reference signal, replicate 1: 4784; Renilla reference signal, replicate 2: 3832

For Nep1 (Neprilysin 1) [SID104198180], what does the deposit list?
firefly Hh reporter signal, replicate 1: 84235; firefly Hh reporter signal, replicate 2: 71381; Renilla reference signal, replicate 1: 1856; Renilla reference signal, replicate 2: 1873

What is on record for Nep1 (Neprilysin 1) [SID104198181]?
firefly Hh reporter signal, replicate 1: 32236; firefly Hh reporter signal, replicate 2: 42218; Renilla reference signal, replicate 1: 1383; Renilla reference signal, replicate 2: 2258

For CG14273 [SID104182169], how do the results read?
firefly Hh reporter signal, replicate 1: 1.46e5; firefly Hh reporter signal, replicate 2: 89029; Renilla reference signal, replicate 1: 3649; Renilla reference signal, replicate 2: 6882
